Results reported in article PMC4682051.
No constants are given. Whether binding was seen depends on the method and setting. In cells and extracts the contact can be indirect. Some entries that bind do so weakly or less than the wild type. Values belong to the binder of their own block, whether it stands above or below them.

Legend:
[1] = biological target: T1, CDC42EP4 (mouse (endogenous in cerebellum)) (UniProt Q9JM96); test: co-IP; whole cerebella of WT and Cdc42ep4-/- (KO) mice lysed in buffer A' (0.2 M Tris-HCl pH 7.35, 0.3 M NaCl, 0.2% SDS, 0.2% Triton X-100, 0.2% sodium deoxycholate, 20 mM 2-mercaptoethanol); anti-CDC42EP4 or anti-SEPT4 on protein A beads, nonimmune rabbit IgG as control; immunoblot
T1 sequence: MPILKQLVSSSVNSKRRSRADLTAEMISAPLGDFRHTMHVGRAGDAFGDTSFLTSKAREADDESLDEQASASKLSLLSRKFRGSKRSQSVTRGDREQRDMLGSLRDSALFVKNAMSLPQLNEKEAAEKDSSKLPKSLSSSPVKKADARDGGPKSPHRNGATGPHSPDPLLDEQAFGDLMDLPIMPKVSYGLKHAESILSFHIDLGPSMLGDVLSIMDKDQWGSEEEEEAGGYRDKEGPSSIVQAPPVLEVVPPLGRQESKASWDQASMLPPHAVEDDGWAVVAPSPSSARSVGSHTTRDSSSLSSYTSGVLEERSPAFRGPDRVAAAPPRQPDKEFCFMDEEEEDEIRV

[2] = biological target: T2, SEPT4 (mouse (endogenous in cerebellum)) (UniProt P28661); test: as above
T2 sequence: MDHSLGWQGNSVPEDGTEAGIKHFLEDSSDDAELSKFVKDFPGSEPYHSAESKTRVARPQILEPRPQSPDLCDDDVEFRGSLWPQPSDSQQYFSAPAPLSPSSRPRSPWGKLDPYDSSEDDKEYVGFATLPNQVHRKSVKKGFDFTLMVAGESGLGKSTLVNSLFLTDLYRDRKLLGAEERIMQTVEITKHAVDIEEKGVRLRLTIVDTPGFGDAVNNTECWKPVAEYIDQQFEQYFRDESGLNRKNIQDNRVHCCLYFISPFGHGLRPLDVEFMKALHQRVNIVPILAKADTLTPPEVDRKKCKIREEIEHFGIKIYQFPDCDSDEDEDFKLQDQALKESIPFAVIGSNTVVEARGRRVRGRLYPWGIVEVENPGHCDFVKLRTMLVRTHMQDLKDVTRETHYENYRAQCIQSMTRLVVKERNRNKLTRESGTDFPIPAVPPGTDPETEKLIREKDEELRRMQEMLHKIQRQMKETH

binding [1]: binds | binding [2]: binds
B1: GLAST (protein, UniProt P56564 1-543)
chain: MTKSNGEEPRMGGRMERLQQGVRKRTLLAKKKVQSLTKEDVKSYLFRNAFVLLTVTAVIVGTILGFALRPYKMSYREVKYFSFPGELLMRMLQMLVLPLIISSLVTGMAALDSKASGKMGMRAVVYYMTTTIIAVVIGIIIVIIIHPGKGTKENMYREGKIVQVTAADAFLDLIRNMFPPNLVEACFKQFKTSYEKRSFKVPIQSNETLLGAVINNVSEAMETLTRIREEMVPVPGSVNGVNALGLVVFSMCFGFVIGNMKEQGQALREFFDSLNEAIMRLVAVIMWYAPLGILFLIAGKIVEMEDMGVIGGQLAMYTVTVIVGLLIHAVIVLPLLYFLVTRKNPWVFIGGLLQALITALGTSSSSATLPITFKCLEENNGVDKRITRFVLPVGATINMDGTALYEALAAIFIAQVNNFDLNFGQIITISITATAASIGAAGIPQAGLVTMVIVLTSVGLPTDDITLIIAVDWFLDRLRTTTNVLGDSLGAGIVEHLSRHELKNRDVEMGNSVIEENEMKKPYQLIAQDNEPEKPVADSETKM

binding [1]: binds | binding [2]: binds
B2: SEPT7 (protein, UniProt O55131 1-436)
chain: MSVSARSAAAEERSVNCGTMAQPKNLEGYVGFANLPNQVYRKSVKRGFEFTLMVVGESGLGKSTLINSLFLTDLYSPEYPGPSHRIKKTVQVEQSKVLIKEGGVQLLLTIVDTPGFGDAVDNSNCWQPVIDYIDSKFEDYLNAESRVNRRQMPDNRVQCCLYFIAPSGHGLKPLDIEFMKRLHEKVNIIPLIAKADTLTPEECQQFKKQIMKEIQEHKIKIYEFPETDDEEENKLVKKIKDRLPLAVVGSNTIIEVNGKRVRGRQYPWGVAEVENGEHCDFTILRNMLIRTHMQDLKDVTNNVHYENYRSRKLAAVTYNGVDNNKNKGQLTKSPLAQMEEERREHVAKMKKMEMEMEQVFEMKVKEKVQKLKDSEAELQRRHEQMKKNLEAQHKELEEKRRQFEEEKANWEAQQRILEQQNSSRTLEKNKKKGKIF

binding [1]: binds | binding [2]: binds
B3: SEPT2 (protein, UniProt P42208 1-361)
chain: MSKQQPTQFINPETPGYVGFANLPNQVHRKSVKKGFEFTLMVVGESGLGKSTLINSLFLTDLYPERIIPGAAEKIERTVQIEASTVEIEERGVKLRLTVVDTPGYGDAINCRDCFKTIISYIDEQFERYLHDESGLNRRHIIDNRVHCCFYFISPFGHGLKPLDVAFMKAIHNKVNIVPVIAKADTLTLKERERLKKRILDEIEEHSIKIYHLPDAESDEDEDFKEQTRLLKASIPFSVVGSNQLIEAKGKKVRGRLYPWGVVEVENPEHNDFLKLRTMLITHMQDLQEVTQDLHYENFRSERLKRGGRKVENEDMNKDQILLEKEAELRRMQEMIARMQAQMQMQMQGGDSDSGALGQHV

binding [1]: binds
B4: SEPT4 (protein, UniProt P28661 1-478)
chain: T2 sequence
